Results as given in PMC12376509.
Results are given in words; binding and its absence hold for the method and conditions named. In cells and extracts the contact can be indirect. These calls come from enrichment with a bait or labelling near it, and not all partners need be listed.

The chains behind the UniProt entries cited, without tags or fusion partners.
UniProt O14965: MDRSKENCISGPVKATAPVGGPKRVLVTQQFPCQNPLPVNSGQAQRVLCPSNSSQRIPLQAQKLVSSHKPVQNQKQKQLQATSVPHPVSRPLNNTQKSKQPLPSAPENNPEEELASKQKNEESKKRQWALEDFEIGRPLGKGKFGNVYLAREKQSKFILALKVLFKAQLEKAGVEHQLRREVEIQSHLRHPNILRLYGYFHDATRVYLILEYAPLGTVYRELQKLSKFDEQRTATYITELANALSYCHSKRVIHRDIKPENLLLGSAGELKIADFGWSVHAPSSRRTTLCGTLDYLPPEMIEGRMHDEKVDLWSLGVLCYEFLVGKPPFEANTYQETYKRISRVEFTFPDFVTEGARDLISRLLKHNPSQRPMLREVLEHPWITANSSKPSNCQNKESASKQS

Target: T1, NEAT1-31 (micropeptide encoded by LincNEAT1) (human (endogenous in THP1))
T1 sequence: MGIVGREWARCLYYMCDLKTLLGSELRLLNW
Test: affinity purification with mass spectrometry; co-IP with the NEAT1-31 antibody from macrophage (THP1) lysate; 0.3% CHAPS lysis buffer, Protein A/G beads, 4 °C, 8-12 h, washed with PBST; LC-MS

Substance: Aurora-A (from UniProt O14965 1-403) (enzyme)
- binding: binds
